Taken from: PubChem BioAssay AID720505 (Drosophila RNAi Screening Center, 2013)
Assay: 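Genes needed for store-operated calcium entry in fly cells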 (primary screen). Cells: Drosophila S2R+ cells. Knock-down reagent: long dsRNA against Drosophila genes. Challenge: thapsigargin (2 µM) in calcium-free buffer to empty internal stores, then 2 mM calcium added back. Measured: 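Fluo-4 signal in 384-well plates read on a FLIPR after thapsigargin (2 µM, calcium-free) store depletion and 2 mM calcium add-back; unnormalised mean endpoint per well; screen run twice, selected wells retested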. Direction: calcium signal and retest calcium signal: higher = more calcium entry after store depletion. Active means: 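About 1500 genes called as lowering calcium entry, by varying amounts, judged against per-plate control wells with STIM1 as positive and Rho1 as negative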. Meaning of the calls: active = called as lowering calcium entry; inactive = not called.
In all, the deposit lists about 20,000 reagents; below is an unselected part of those that have a named target and a result. Of all reagents, about 2,100 (10%) are marked active. 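Raw plate signals without normalisation; calls rest on control-based scores that were not deposited; replicate 2 separates called from uncalled poorly.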 Names joined by + are all predicted targets of the reagent. Not given: the amount of reagent, the time to read-out.

| target | amplicon | calcium signal, replicate 1 | calcium signal, replicate 2 | retest calcium signal, replicate 1 | retest calcium signal, replicate 2 | outcome |
| --- | --- | --- | --- | --- | --- | --- |
| CG2915 | DRSC06842 | 140 | 90 | – | – | inactive |
| nclb | DRSC07009 | 119 | 138 | – | – | inactive |
| CG8939 | DRSC20127 | 104 | 108 | – | – | inactive |
| Sar1 | DRSC17049 | 150 | 169 | – | – | inactive |
| Sar1 | DRSC22115 | 64.5 | 82.1 | – | – | inactive |
| CG9813 | DRSC16569 | 113 | 112 | – | – | inactive |
| CG1946 | DRSC06804 | 134 | 209 | – | – | inactive |
| Pen | DRSC03396 | 105 | 98.8 | – | – | inactive |
| CG15099 | DRSC06528 | 116 | 158 | – | – | inactive |
| by | DRSC16482 | 133 | 95.9 | – | – | inactive |
| Papst2 | DRSC10924 | 90.6 | 111 | – | – | inactive |
| Vdup1 | DRSC08586 | 114 | 115 | – | – | inactive |
| Rsod | DRSC15424 | 82.7 | 93 | – | – | inactive |
| Uxt | DRSC01962 | 119 | 121 | – | – | inactive |
| Mvd | DRSC20096 | 108 | 121 | – | – | inactive |
| Rbbp5 | DRSC11778 | 75.7 | 136 | – | – | inactive |
| MCTS1 | DRSC18393 | 115 | 119 | – | – | inactive |
| PH4alphaSG1 | DRSC15080 | 136 | 155 | – | – | inactive |
| CkIIbeta2 | DRSC07361 | 159 | 147 | – | – | inactive |
| mRpS18B | DRSC02107 | 89.5 | 113 | – | – | inactive |
| Madm | DRSC12129 | 83.4 | 160 | – | – | active |
| CR40441 | DRSC22916 | 97.8 | 193 | – | – | inactive |
| CG7611 | DRSC11840 | 68.2 | 44.2 | 99.6 | 96.8 | active |
| colt | DRSC00808 | 110 | 176 | – | – | inactive |
| rdhB | DRSC16190 | 172 | 141 | – | – | inactive |
| CG5196 | DRSC15735 | 179 | 113 | – | – | inactive |
| RagC-D | DRSC07239 | 145 | 119 | – | – | inactive |
| CG12470 | DRSC18620 | 122 | 116 | – | – | inactive |
| pain | DRSC04273 | 140 | 190 | – | – | inactive |
| Rpt1 | DRSC07542 | 91.4 | 71.2 | – | – | inactive |
| MFS3 | DRSC00664 | 192 | 134 | – | – | inactive |
| CG43736 | DRSC18370 | 298 | 147 | – | – | inactive |
| CG43736 | DRSC18371 | 236 | 120 | – | – | inactive |
| not | DRSC11378 | 99.2 | 127 | – | – | inactive |
| FipoQ | DRSC15413 | 123 | 128 | – | – | inactive |
| kune | DRSC04860 | 169 | 150 | – | – | inactive |
| CG33543 | DRSC00384 | 98.1 | 122 | – | – | inactive |
| CG33543 | DRSC00385 | 83.5 | 119 | – | – | inactive |
| Gem3 | DRSC11144 | 89.4 | 114 | – | – | inactive |
| Cul6 | DRSC09830 | 61.9 | 94.6 | – | – | active |
| Galt | DRSC03161 | 131 | 247 | – | – | inactive |
| CG8508 | DRSC16436 | 90.5 | 120 | – | – | inactive |
| dao | DRSC01960 | 141 | 117 | – | – | inactive |
| HDAC11 | DRSC14280 | 119 | 95.5 | – | – | inactive |
| CG13306 | DRSC09976 | 114 | 93.7 | – | – | inactive |
| KCNQ | DRSC06121 | 169 | 130 | – | – | inactive |
| KCNQ | DRSC06230 | 83.7 | 91.2 | – | – | inactive |
| CG34370 | DRSC03913 | 151 | 7425 | – | – | inactive |
| CG34370 | DRSC04142 | 161 | 87.5 | – | – | inactive |
| CG34370 | DRSC04143 | 183 | 104 | – | – | inactive |
| CG34370 | DRSC04144 | 175 | 114 | – | – | inactive |
| Zaf1 | DRSC16121 | 125 | 119 | – | – | inactive |
| cwo | DRSC17072 | 148 | 110 | – | – | inactive |
| CG7886 | DRSC16333 | 180 | 209 | – | – | inactive |
| slx1 | DRSC12290 | 110 | 153 | – | – | inactive |
| Cad96Ca | DRSC14220 | 206 | 165 | – | – | inactive |
| Cad96Ca | DRSC16693 | 246 | 191 | – | – | inactive |
| nAChRalpha4 | DRSC11925 | – | – | – | – | inactive |
| nAChRalpha4 | DRSC11929 | – | – | – | – | active |
| CrebA | DRSC11122 | 117 | 72.7 | – | – | inactive |
| ebi | DRSC00816 | 93.7 | 169 | – | – | inactive |
| ppk11 | DRSC02737 | 213 | 168 | – | – | inactive |
| en | DRSC07609 | 109 | 192 | – | – | inactive |
| CG5708 | DRSC02881 | 153 | 141 | – | – | inactive |
| Ccdc56 + mtTFB1 | DRSC10809 | 95.7 | 113 | 73.8 | 92.1 | inactive |
| CG18336 | DRSC06334 | 106 | 169 | – | – | inactive |
| crp | DRSC03515 | 147 | 98.7 | – | – | inactive |
| CG14650 | DRSC12236 | 67.5 | 143 | 98.7 | 65.5 | inactive |
| cGlr2 | DRSC04017 | 79.4 | 58.6 | – | – | active |
| CG9173 | DRSC08635 | 104 | 155 | – | – | inactive |
| CG32564 | DRSC19933 | 110 | 110 | – | – | inactive |
| SMC6 | DRSC15829 | 213 | 205 | – | – | inactive |
| CG5235 | DRSC10494 | 104 | 217 | – | – | inactive |
| escl | DRSC02828 | 122 | 143 | – | – | inactive |
| CG13627 | DRSC14629 | 244 | 166 | – | – | inactive |
| BicC | DRSC02005 | 122 | 137 | – | – | inactive |
| RpS14b | DRSC18711 | 55.5 | 101 | – | – | active |
| Rab2 | DRSC05017 | 186 | 96.6 | – | – | inactive |
| grk | DRSC03540 | 139 | 211 | – | – | inactive |
| Bfc | DRSC08623 | 76.1 | 104 | – | – | inactive |
| CG15125 | DRSC06547 | 185 | 113 | – | – | inactive |
| CG5646 | DRSC15853 | 91.4 | 149 | – | – | inactive |
| CG1233 | DRSC08269 | 138 | 81.8 | – | – | inactive |
| CG2930 | DRSC17730 | 134 | 167 | – | – | inactive |
| CadN2 | DRSC03062 | 146 | 141 | – | – | inactive |
| CadN2 | DRSC03063 | 110 | 105 | – | – | inactive |
| CadN2 | DRSC03064 | 105 | 133 | – | – | inactive |
| CG32320 | DRSC21514 | 131 | 117 | – | – | inactive |
| CG11889 + CG11891 | DRSC14426 | 217 | 136 | – | – | inactive |
| CG11889 + CG11891 | DRSC14427 | 228 | 146 | – | – | inactive |
| CG5897 | DRSC10555 | 64.4 | 55 | – | – | active |
| Qsox2 | DRSC15287 | 116 | 223 | – | – | inactive |
| CG9915 | DRSC20217 | 92.7 | 119 | – | – | inactive |
| CG9915 | DRSC21565 | 172 | 104 | – | – | inactive |
| Ir60a | DRSC04212 | 93.6 | 248 | – | – | inactive |
| CG34176 | DRSC00435 | 188 | 73.6 | – | – | inactive |
| CG31797 | DRSC02476 | 191 | 107 | – | – | inactive |
| CG31797 | DRSC02477 | 178 | 75.9 | – | – | inactive |
| Best3 | DRSC09880 | 76.6 | 131 | – | – | inactive |
| AMPdeam | DRSC18996 | 80.7 | 102 | – | – | inactive |
| AMPdeam | DRSC19366 | 76.4 | 82.5 | – | – | inactive |
| AMPdeam | DRSC19368 | 71.2 | 79.8 | – | – | active |
| AMPdeam | DRSC19727 | 70.8 | 67.5 | – | – | active |
| SmydA-9 | DRSC17814 | 102 | 113 | – | – | inactive |
| Obp56h | DRSC06433 | 142 | 129 | – | – | inactive |
| cold | DRSC00538 | 114 | 197 | – | – | inactive |

Hits (from the list above):
| target | amplicon | calcium signal, replicate 1 | calcium signal, replicate 2 | retest calcium signal, replicate 1 | retest calcium signal, replicate 2 | outcome |
| --- | --- | --- | --- | --- | --- | --- |
| Madm | DRSC12129 | 83.4 | 160 | – | – | active |
| CG7611 | DRSC11840 | 68.2 | 44.2 | 99.6 | 96.8 | active |
| Cul6 | DRSC09830 | 61.9 | 94.6 | – | – | active |
| nAChRalpha4 | DRSC11929 | – | – | – | – | active |
| cGlr2 | DRSC04017 | 79.4 | 58.6 | – | – | active |
| RpS14b | DRSC18711 | 55.5 | 101 | – | – | active |
| CG5897 | DRSC10555 | 64.4 | 55 | – | – | active |
| AMPdeam | DRSC19368 | 71.2 | 79.8 | – | – | active |
| AMPdeam | DRSC19727 | 70.8 | 67.5 | – | – | active |
